In PMC3486646:
These are yes or no findings as the source states them, for the method shown. In cells and extracts the contact can be indirect. Some results given as binding are weak or reduced against the parent protein; the word gives no strength.

How the values were obtained:
Staufen1-TAP = Staufen1-TAP (UniProt O95793); experiment: pull-down; tandem affinity purification of Staufen1-TAP (IgG Sepharose, TEV cleavage, Calmodulin-affinity resin, EGTA elution) from lysates of stable 293T or Jurkat T cells, without or with HIV-1 (pNL4-3); eluates western blotted
IMP1-VenusC, Q9NZI8 = experiment: co-IP; CRM1, ABCE1, TDP-43, AUF1 or IMP1-VenusC (anti-GFP) immunoprecipitated from HeLa cell lysates; equal amounts of lysates treated with or without RnaseA for 30 min on ice before IP; details: remark: other sources report otherwise

binding (Staufen1-TAP) | binding (IMP1-VenusC, Q9NZI8) | Binder
binds | – | Upf3b (protein, UniProt Q9BZI7 1-483) MKEEKEHRPKEKRVTLLTPAGATGSGGGTSGDSSKGEDKQDRNKEKKEALSKVVIRRLPPTLTKEQLQEHLQPMPEHDYFEFFSNDTSLYPHMYARAYINFKNQEDIILFRDRFDGYVFLDNKGQEYPAIVEFAPFQKAAKKKTKKRDTKVGTIDDDPEYRKFLESYATDNEKMTSTPETLLEEIEAKNRELIAKKTTPLLSFLKNKQRMREEKREERRRREIERKRQREEERRKWKEEEKRKRKDIEKLKKIDRIPERDKLKDEPKIKVHRFLLQAVNQKNLLKKPEKGDEKELDKREKAKKLDKENLSDERASGQSCTLPKRSDSELKDEKPKRPEDESGRDYREREREYERDQERILRERERLKRQEEERRRQKERYEKEKTFKRKEEEMKKEKDTLRDKGKKAESTESIGSSEKTEKKEEVVKRDRIRNKDRPAMQLYQPGARSRNRLCPPDDSTKSGDSAAERKQESGISHRKEGGEE
binds | – | Upf1 (Up-frameshift protein 1) (protein, UniProt Q92900 1-1129) MSVEAYGPSSQTLTFLDTEEAELLGADTQGSEFEFTDFTLPSQTQTPPGGPGGPGGGGAGGPGGAGAGAAAGQLDAQVGPEGILQNGAVDDSVAKTSQLLAELNFEEDEEDTYYTKDLPIHACSYCGIHDPACVVYCNTSKKWFCNGRGNTSGSHIVNHLVRAKCKEVTLHKDGPLGETVLECYNCGCRNVFLLGFIPAKADSVVVLLCRQPCASQSSLKDINWDSSQWQPLIQDRCFLSWLVKIPSEQEQLRARQITAQQINKLEELWKENPSATLEDLEKPGVDEEPQHVLLRYEDAYQYQNIFGPLVKLEADYDKKLKESQTQDNITVRWDLGLNKKRIAYFTLPKTDSGNEDLVIIWLRDMRLMQGDEICLRYKGDLAPLWKGIGHVIKVPDNYGDEIAIELRSSVGAPVEVTHNFQVDFVWKSTSFDRMQSALKTFAVDETSVSGYIYHKLLGHEVEDVIIKCQLPKRFTAQGLPDLNHSQVYAVKTVLQRPLSLIQGPPGTGKTVTSATIVYHLARQGNGPVLVCAPSNIAVDQLTEKIHQTGLKVVRLCAKSREAIDSPVSFLALHNQIRNMDSMPELQKLQQLKDETGELSSADEKRYRALKRTAERELLMNADVICCTCVGAGDPRLAKMQFRSILIDESTQATEPECMVPVVLGAKQLILVGDHCQLGPVVMCKKAAKAGLSQSLFERLVVLGIRPIRLQVQYRMHPALSAFPSNIFYEGSLQNGVTAADRVKKGFDFQWPQPDKPMFFYVTQGQEEIASSGTSYLNRTEAANVEKITTKLLKAGAKPDQIGIITPYEGQRSYLVQYMQFSGSLHTKLYQEVEIASVDAFQGREKDFIILSCVRANEHQGIGFLNDPRRLNVALTRARYGVIIVGNPKALSKQPLWNHLLNYYKEQKVLVEGPLNNLRESLMQFSKPRKLVNTINPGARFMTTAMYDAREAIIPGSVYDRSSQGRPSSMYFQTHDQIGMISAGPSHVAAMNIPIPFNLVMPPMPPPGYFGQANGPAAGRGTPKGKTGRGGRQKNRFGLPGPSQTNLPNSQASQDVASQPFSQGALTQGYISMSQPSQMSQPGLSQPELSQDSYLGDEFKSQIDVALSQDSTYQGERAYQHGGVTGLSQY
– | binds | Staufen1 (in the HeLa lysates used for immunoprecipitation), O95793 1-577 (protein) MSQVQVQVQNPSAALSGSQILNKNQSLLSQPLMSIPSTTSSLPSENAGRPIQNSALPSASITSTSAAAESITPTVELNALCMKLGKKPMYKPVDPYSRMQSTYNYNMRGGAYPPRYFYPFPVPPLLYQVELSVGGQQFNGKGKTRQAAKHDAAAKALRILQNEPLPERLEVNGRESEEENLNKSEISQVFEIALKRNLPVNFEVARESGPPHMKNFVTKVSVGEFVGEGEGKSKKISKKNAAIAVLEELKKLPPLPAVERVKPRIKKKTKPIVKPQTSPEYGQGINPISRLAQIQQAKKEKEPEYTLLTERGLPRRREFVMQVKVGNHTAEGTGTNKKVAKRNAAENMLEILGFKVPQAQPTKPALKSEEKTPIKKPGDGRKVTFFEPGSGDENGTSNKEDEFRMPYLSHQQLPAGILPMVPEVAQAVGVSQGHHTKDFTRAAPNPAKATVTAMIARELLYGGTSPTAETILKNNISSGHVPHGPLTRPSEQLDYLSRVQGFQVEYKDFPKNNKNEFVSLINCSSQPPLISHGIGKDVESCHDMAALNILKLLSELDQQSTEMPRTGNGPMSVCGRC
